# The list shows a part of the results. Shown are side measurements of this screen, not its main read-out; they come without a call. Compounds called inactive in the main read-out are mostly missing here. The note in brackets gives the kind of curve behind each potency; many fits are weak.
# Assay: qHTS Assay to Find Inhibitors of Chronic Active B-Cell Receptor Signaling
# Details: ABC-DLBCL IkBa-CBG/CBR reporter, luminescence ratio (green luciferase fused to IkBa over red control in TMD8 lymphoma cells), 4 h
# Method in brief: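 TMD8 human ABC-DLBCL cells with doxycycline-inducible IκBα–green luciferase fusion and unfused red luciferase, in 0.5% FBS medium; compounds up to 46 uM, 4 h at 37C. Green/red luminescence ratio, filter-overlap corrected, fitted to concentration-response curves.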
# [1] = measured here: CBR red luminescence, cell number
# [2] = measured here: IkBa-CBG green luminescence
SMILES,AC50 [1],AC50 [2]
COc1ccc(-n2nc3c(c2NC(=O)Cc2cccc(C)c2)CS(=O)C3)cc1 (centres undefined),"29.1 µM [falling, single point]",–
O=c1oc(-c2ccco2)nc2sc3c(c12)CCCCC3,"1 µM [falling, full curve, poor fit]",–
O=C(c1ccccc1)c1nc2c(n1O)CCCCC2,"35.5 µM [falling, single point]",–
COc1cccc(C(=O)Oc2ccc(/C=N/Nc3ccc(C(=O)O)cc3)cc2OC)c1,"0.316 µM [falling, full curve]",–
O=C(O)c1ccccc1C(=O)Nc1ccc(Oc2ccccc2)cc1,"0.112 µM [rising, full curve, poor fit]",–
O=C1/C(=C\c2cccnc2)SC(=S)N1C1CCS(=O)(=O)C1 (centres undefined),"8.91 µM [falling, partial curve]",–
COc1ccc2cc(CN(CC3CCCO3)S(=O)(=O)c3ccccc3)c(=O)[nH]c2c1 (centres undefined),"2.59 µM [falling, full curve]",–
COc1cccc(C(=O)OCC(=O)NCCc2ccccc2)c1OC,"35.5 µM [rising, single point]",–
O=C(CNC(=O)c1ccccc1)OCc1cccc([N+](=O)[O-])c1,"13 µM [rising, partial curve, poor fit]",–
COc1ccc(/C=C(/C(=O)c2cccs2)N2C=CC=CC2=C(C#N)C#N)cc1,"2.91 µM [rising, full curve]",–
C=CC[C@@H](CC(=O)N[C@H](CO)Cc1ccccc1)C(=O)N[C@@H](COC(=O)[C@@H](CC=C)CC(=O)OC(C)(C)C)Cc1c[nH]c2ccccc12,"1.46 µM [falling, full curve, poor fit]",–
Cc1ccc2[nH]c(=O)c(CN(Cc3cccs3)Cc3nnnn3Cc3ccccc3)cc2c1,"22.4 µM [falling, single point]",–
CN1CCN(c2ncccc2S(=O)(=O)N2CCCCC2)CC1,"18.4 µM [rising, single point]",–
O=c1[nH]c2ccccc2n1C1=CCCC1,"7.08 µM [rising, partial curve, poor fit]",–
O=C(CSc1ncn[nH]1)Nc1ccc(Br)cc1F,"35.5 µM [falling, single point]",–
CCCCN(CCCC)C(=O)CCS(=O)(=O)c1ccc2c(c1)n(C)c(=O)c(=O)n2C,"14.1 µM [falling, single point]",–
C/C(=N\NC(=O)c1ccc(F)cc1)c1ccc(NC(=O)Cc2ccccc2)cc1,"11.2 µM [falling, partial curve]",–
O=C(Nc1ccccc1Cl)Oc1ccc(-c2ccccc2)cc1,"35.5 µM [rising, partial curve, poor fit]",–
Cc1nc(-c2ccc(O)c(O)c2)cs1,"2.06 µM [falling, partial curve, poor fit]",–
Cc1cc(=O)[nH]c(SCC(=O)Nc2ccccc2C)n1,"3.16 µM [rising, partial curve, poor fit]",–
Cc1ccc(SC[C@H](CC(C)C)N2CCN(CCc3ccccc3)CCC2=O)cc1,"1.12 µM [falling, partial curve]",–
CCc1nn(C(C)C(=O)NCCc2ccc(OC)c(OC)c2)c(=O)c2cc3occc3n12 (centres undefined),"32.6 µM [rising, single point]",–

# Shown bar-delimited: entries from further up
SMILES | AC50 [1] | AC50 [2]
O=C1/C(=C\c2cccnc2)SC(=S)N1C1CCS(=O)(=O)C1 (centres undefined) | 8.91 µM [falling, partial curve] | –
O=C(CNC(=O)c1ccccc1)OCc1cccc([N+](=O)[O-])c1 | 13 µM [rising, partial curve, poor fit] | –
Cc1ccc(SC[C@H](CC(C)C)N2CCN(CCc3ccccc3)CCC2=O)cc1 | 1.12 µM [falling, partial curve] | –

# The list goes on.

SMILES,AC50 [1],AC50 [2]
Cc1ccc(N=C2C(=O)Nc3ccc(Br)cc32)cc1,–,"25.1 µM [falling, single point]"
S=C(N/N=C/c1ccccc1Cl)Nc1ccccc1,"12.6 µM [falling, partial curve]",–
O=C(NCc1ccco1)c1cccc(NC(=O)c2ccccc2)c1,"4.11 µM [falling, single point]",–
COc1ccc(/C=N/NC(=O)Nc2nonc2N)cc1,"1.16 µM [rising, partial curve, poor fit]",–
Cc1cnn(Cc2ccccc2)c1N,"6.51 µM [rising, single point]",–
CCOC(=O)N1CCC(NC(=O)CS(=O)(=O)Cc2nc(-c3cccc(OC)c3)oc2C)CC1,"0.794 µM [rising, full curve, poor fit]",–
Cc1ccc(NC(=O)c2ccc(NS(=O)(=O)c3ccc4[nH]c(=O)[nH]c4c3)cc2)nc1,"5.17 µM [falling, full curve, poor fit]",–
COc1ccc(NC(=O)c2noc3c2CCC3)cc1,"8.2 µM [falling, partial curve, poor fit]",–
CCOc1ccc(C(C)=O)cc1COC(=O)C1=COCCO1,"1.12 µM [falling, full curve]",–
CC(=O)N1CCc2cc(S(=O)(=O)NCCC(=O)Nc3cccc(C)c3C)ccc21,"32.6 µM [rising, single point]",–
CCOc1nc(-c2ccc(Cl)cc2Cl)ccc1C#N,"16.4 µM [rising, partial curve]",–
CCCn1c(=O)c2c(nc3n2CCCN3CCc2ccccc2)n(C)c1=O,"22.4 µM [falling, single point]",–
CC(=O)Nc1ccc2nc(NC(=O)c3cccnc3)sc2c1,"11.2 µM [falling, partial curve]",–
CCOC(=O)Cc1csc(NC(=O)c2sc3nc4cc(C)ccc4cc3c2N)n1,"1.84 µM [falling, full curve]",–
COC(=O)Cc1c(C)nc2nc(-c3ccc(OC)cc3)[nH]n2c1=O,"0.92 µM [falling, full curve]",–
Clc1ncnc2scc(C3COc4ccccc4O3)c12 (centres undefined),"1.84 µM [falling, partial curve, poor fit]","25.9 µM [rising, partial curve, poor fit]"
CCCCCC1CC(CC(=O)Nc2ccc([N+](=O)[O-])cc2)C(=O)O1 (centres undefined),–,"5.8 µM [rising, partial curve, poor fit]"
CC(c1ccccc1)C1CC(=O)N(c2ccc(C(=O)O)cc2)C1=O (centres undefined),"13 µM [rising, single point]",–
c1ccc2nc(-c3ccc(-n4ccnc4)cc3)ccc2c1,"0.141 µM [rising, full curve, poor fit]",–
COc1ccc(/C=C/C(=O)C2CC2)cc1COc1c(C)cccc1C,"35.5 µM [rising, single point]","35.5 µM [falling, single point]"
O=C1Nc2ccccc2S/C1=C/Nc1cccc(Cl)c1,"0.0794 µM [falling, full curve]",–
C/C(=N\O)c1ccc2c3ccccc3n(C)c2c1,"7.94 µM [rising, partial curve]",–

# Taken from above.
# In AC50 [1], COc1ccc(NC(=O)c2noc3c2CCC3)cc1 reads 8.2 µM [falling, partial curve, poor fit]
# In AC50 [1], O=C1Nc2ccccc2S/C1=C/Nc1cccc(Cl)c1 reads 0.0794 µM [falling, full curve]
# In AC50 [1], CC(=O)Nc1ccc2nc(NC(=O)c3cccnc3)sc2c1 reads 11.2 µM [falling, partial curve]

# (listing goes on)

SMILES,AC50 [1],AC50 [2]
N#CCSc1nc2c(cc1C#N)CCCCCC2,"29.1 µM [rising, single point]",–
O=c1[nH]cnc2c1c(-c1ccccc1)cn2-c1cccc(Cl)c1,"4.47 µM [falling, partial curve]",–
N#C/C(=C/c1ccc(N2CCOCC2)o1)c1nc2ccccc2[nH]1,"8.2 µM [falling, partial curve]",–
CCc1ccc2nc(N3CCN(C(=O)C(C)(C)C)CC3)sc2c1,"0.891 µM [rising, full curve, poor fit]",–
COc1ccc(-c2nc(C#N)c(NCCc3ccccc3)o2)cc1,"18.4 µM [rising, partial curve, poor fit]",–
NNC(=O)c1ccc2ccccc2n1,"0.501 µM [falling, full curve, poor fit]",–
COc1ccc(S(=O)(=O)NCc2ccco2)cc1NC(=O)c1ccccc1,"14.1 µM [falling, single point]",–
CS(=O)(=O)N1CCN=C1SCc1ccc(F)cc1,"14.1 µM [rising, partial curve, poor fit]",–
CC12CCC(C(=O)N3CCN(c4ncccn4)CC3)(c3nc4ccccc4nc31)C2(C)C (centres undefined),"2.06 µM [rising, partial curve, poor fit]",–
CNCC[C@@H](Oc1ccc(C(F)(F)F)cc1)c1ccccc1,"11.6 µM [falling, partial curve, poor fit]",–
COc1ccccc1CNC(=O)CSc1nc(=O)n(Cc2ccncc2)c2c1CCC2,"14.6 µM [falling, partial curve]",–
CCN(CC)CCN1C(=O)C(=O)/C(=C(/O)c2c(C)[nH]c(C(=O)OC)c2C)C1c1ccc(C)o1 (centres undefined),"35.5 µM [falling, single point]",–
CCOC(=O)c1c(SC)nc(SC)c2c1CCC2,"0.92 µM [rising, full curve, poor fit]",–
CCOc1ncccc1C(=O)N=c1sccn1C,"0.794 µM [rising, full curve, poor fit]",–
CCOc1ccccc1NC(=O)COC(=O)Cc1ccc(-c2ccccc2)cc1,"13 µM [falling, partial curve]",–
COCCNC(=O)c1cc2sc3ccccc3c2s1,"1.3 µM [rising, partial curve, poor fit]",–
CCN(CC)S(=O)(=O)c1ccc(NC(=O)COC(=O)CNS(=O)(=O)/C=C/c2ccccc2)cc1,"29.1 µM [falling, single point]",–
Cc1cc(Cl)ccc1OCC(=O)N1CCCCC1,"32.6 µM [rising, single point]","32.6 µM [falling, partial curve, poor fit]"
Brc1cccc(Nc2nc(-c3cccnc3)cs2)c1,"3.55 µM [rising, partial curve, poor fit]",–
COc1cc(C(=O)N(CCN(C)C)CC2CCCN(Cc3ccccc3F)C2)ccc1C (centres undefined),"28.2 µM [falling, partial curve, poor fit]",–
COc1ccc(OC)c(-c2cc(C(=O)Nc3c(C)nn(Cc4ccccc4)c3C)no2)c1,"3.55 µM [rising, single point]","14.1 µM [falling, partial curve, poor fit]"
